Measurements from publication PMC10762189.
No constants are given. Whether binding was seen depends on the method and setting. In cells and extracts the contact can be indirect. Some entries that bind do so weakly or less than the wild type.

T1: SLC25A46 (endogenous, liver) (mouse (endogenous in liver)) (UniProt Q9CQS4)
T1 sequence: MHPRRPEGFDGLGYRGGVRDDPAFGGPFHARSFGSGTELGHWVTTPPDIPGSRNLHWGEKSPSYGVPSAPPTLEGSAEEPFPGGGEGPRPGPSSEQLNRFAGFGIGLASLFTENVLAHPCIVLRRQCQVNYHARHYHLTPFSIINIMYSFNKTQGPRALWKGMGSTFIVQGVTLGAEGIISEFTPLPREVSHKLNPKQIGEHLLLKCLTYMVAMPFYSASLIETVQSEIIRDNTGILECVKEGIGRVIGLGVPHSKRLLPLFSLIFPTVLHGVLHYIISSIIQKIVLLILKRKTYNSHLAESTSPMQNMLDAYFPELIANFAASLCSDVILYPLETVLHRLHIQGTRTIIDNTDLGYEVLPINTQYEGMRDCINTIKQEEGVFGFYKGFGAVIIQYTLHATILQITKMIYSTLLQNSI


Biological target: T1, SLC25A46 (endogenous, liver) (mouse (endogenous in liver))
Assay: co-IP; liver lysates with anti-GFP (control) or anti-SLC25A46 at 4 °C overnight; immunoblot

binding	Binder
binds	Mic19 (endogenous, liver) (protein, UniProt Q9CRB9 1-227) MGGTASTRRVTFEADENENITVVKGIRLSENVIDRMKESSPSGSKSQRYSSVYGASVSDEDLKRRVAEELALEQAKKESEHQRRLKQARDLERERAAANEQLTRAVLRERISSEEERMKAKHLARQLEEKDRVMRKQDAFYKEQLARLEERSSEFYKVTTEEYQKAAEEVEAKFKRYEYHPVCADLQTKILQCYRQNTQQTLSCSALASQYMHCVNHAKQSMLEKGG
binds	EMC2 (endogenous, liver) (protein, UniProt Q9CRD2 1-297) MAKVTERYDVTWEEMRDKMRKWREENSRNSEQIMEVGEELINDYASKLGDDIWIIYEQVMIAALDYGRDDLALFCLQELRRQFPGSHRVKRLTGMRFEAMERYDDAIQLYDRILQEDPTNTAARKRKIAIRKAQGKTVEAIRELNEYLEQFVGDQEAWHELAELYINEHDYAKAAFCLEELMMTNPHNHLYCQQYAEVKYTQGGLENLELSRKYFAQALKLNNRNMRALFGLYMSASHIASNPKASAKMKKDNIKYASWAANQINRAYQFAGRSKKETKYSLKAVEDMLETLQITQS
